# Laboratory results: PubChem BioAssay AID504834 (National Center for Advancing Translational Sciences (NCATS), 2011)
# Hit rate of the full screen: of about 320,000 compounds, about 22,000 (6.9%) were called active. The shares of active, inactive and inconclusive entries below differ from those in the screen. The call rests on the fitted dose curve; in most records, active means well fitted inhibition curve with a large enough effect; inconclusive means small, poorly fitted or top-dose-only effect, or another doubt; inactive means no such curve, though single readings can be large or run the other way. Potencies of inconclusive entries are doubtful fits and often do not repeat.
# Assay: Primary qHTS for delayed death inhibitors of the malarial parasite plastid, 96 hour incubation
# Details: P. falciparum luciferase reporter growth; series mostly up to 28.7 µM; activity change, negative = inhibition: at the top concentration
# Summary of the method: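 Delayed-death screen, second-generation endpoint: infected erythrocytes, 2% hematocrit, 0.05% parasitemia final; 96 hours at 37 C, 5% CO2; luciferase detection reagent; luminescence decrease equals reduced growth.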
# On the % scale 0 is the no-effect control and ±100 the full control effect; potency means the concentration at half of the fitted maximal effect.
SMILES,"activity change, negative = inhibition",Potency
O=C(CS(=O)(=O)c1ccccc1)Nc1nc2ccccc2s1,inactive: -6.15%,
Cn1c(Cn2cnc3ccccc32)nnc1SCc1ccccc1,,"inconclusive: 7.38 µM [inhibitor, partial curve, poor fit]"
COc1ccc(N2CCN(C(=O)CN3CCN(C(c4ccccc4)c4ccccc4)CC3)CC2)cc1,inactive: 0%,
O=C(CN1CCN(CCO)CC1)Nc1ccc(Cl)cc1C(=O)c1ccccc1,,"inconclusive: 18.5 µM [inhibitor, single point]"
Cc1cccc(NC(=O)CSc2nnc([C@@H]3CCCN3C(=O)OC(C)(C)C)o2)c1C,,"inconclusive: 10.4 µM [inhibitor, partial curve, poor fit]"
CC(NC(=O)CCNS(=O)(=O)c1cccc2nonc12)c1ccccc1 (configuration not stated),,"inconclusive: 18.5 µM [inhibitor, single point]"
Cc1ccc(S(=O)(=O)N2CCN(S(=O)(=O)c3c(C)n[nH]c3C)CC2)cc1C,,"inconclusive: 1.85 µM [inhibitor, partial curve, poor fit]"
CCNC(=S)NS(=O)(=O)c1ccc(CC)cc1,,"inconclusive: 0.522 µM [inhibitor, full curve, poor fit]"
O=C(NC1CCN(Cc2ccccc2)CC1)c1cccc(S(=O)(=O)Nc2ccc(Br)cc2)c1,,"inconclusive: 1.47 µM [inhibitor, partial curve, poor fit]"
CN(C)C(=O)C[n+]1cccc(/C=N/O)c1,inactive: -1.59%,
Cc1ccc(S(=O)(=O)N2CCC(C(=O)NCCCn3ccnc3)CC2)cc1,inactive: -17.8%,
CC(=O)Nc1ccc(S(=O)(=O)N2CCC(C(=O)O)(c3ccccc3)CC2)cc1,,"inconclusive: 18.5 µM [inhibitor, single point]"
Cc1cc(Cl)ccc1NC(=O)CN(C)C1=NS(=O)(=O)c2ccccc21,inactive: -14.5%,
CC(=O)c1cccc(N(C(=O)c2ccccn2)C(C(=O)NC2CCCCC2)c2cccs2)c1 (configuration not stated),,active: 1.65 µM
COc1ccc(NC(=S)N(CCN(C)C)C(C)c2ccco2)cc1Cl (configuration not stated),,active: 10.4 µM
COC(=O)c1ccccc1NC(=O)C(C)Oc1ccccc1 (configuration not stated),inactive: 1.05%,
O=[N+]([O-])c1ccc(N/N=C/c2ccc[nH]2)cc1,,"inconclusive: 0.0657 µM [inhibitor, full curve, poor fit]"
CSc1ccc(/C=C(\C#N)C(=O)NC2CCCCC2C)cc1 (configuration not stated),,"inconclusive: 10.4 µM [inhibitor, partial curve]"
CC(C)C(NC(=O)OCc1ccccc1)C(=O)OCC(=O)N1C(C)CCCC1C (configuration not stated),,"inconclusive: 16.5 µM [inhibitor, single point]"
CCCCCn1c(CN2CCN(C(=O)c3ccco3)CC2)nc2c1c(=O)n(C)c(=O)n2C,,"inconclusive: 14.7 µM [inhibitor, single point]"
CC(=O)NCc1ccc(-c2csc(-c3cccs3)n2)cc1,inactive: 152%,
COc1cc2c(C(=O)N(C)c3cc(Cl)ccc3OC)cn(C)c(=O)c2cc1OC,,"inconclusive: 16.5 µM [inhibitor, single point]"
CC(C)n1c(-c2ccc(N(C)C)cc2)nc2ccccc21,inactive: 57.3% [at 5.75 µM],
CCCCN(C(=O)COC(=O)COc1c(C)cc(C)cc1C)c1c(N)n(CCC)c(=O)[nH]c1=O,inactive: 1.62%,

# Given as tab-separated lines: entries from further up
SMILES	activity change, negative = inhibition	Potency
CCNC(=S)NS(=O)(=O)c1ccc(CC)cc1		inconclusive: 0.522 µM [inhibitor, full curve, poor fit]
O=C(NC1CCN(Cc2ccccc2)CC1)c1cccc(S(=O)(=O)Nc2ccc(Br)cc2)c1		inconclusive: 1.47 µM [inhibitor, partial curve, poor fit]
CN(C)C(=O)C[n+]1cccc(/C=N/O)c1	inactive: -1.59%	
Cc1ccc(S(=O)(=O)N2CCC(C(=O)NCCCn3ccnc3)CC2)cc1	inactive: -17.8%	
CC(=O)Nc1ccc(S(=O)(=O)N2CCC(C(=O)O)(c3ccccc3)CC2)cc1		inconclusive: 18.5 µM [inhibitor, single point]
Cc1cc(Cl)ccc1NC(=O)CN(C)C1=NS(=O)(=O)c2ccccc21	inactive: -14.5%	

# (next part)

SMILES,"activity change, negative = inhibition",Potency
O=C1CCCCN1CC(=O)N1CCCC(Nc2ccc(F)c(F)c2)C1 (configuration not stated),,"inconclusive: 13.1 µM [inhibitor, single point]"
O=C(CCS(=O)(=O)c1ccc2c(c1)NC(=O)CS2)NCc1cccs1,,"inconclusive: 9.28 µM [inhibitor, partial curve]"
CCOC(=O)c1ccccc1NS(=O)(=O)c1cnn(CC)c1C,inactive: -1.54%,
CC1(c2ccc3c(c2)OCCO3)NC(=O)N(CC(=O)Nc2ccccc2SCC#N)C1=O (configuration not stated),,"inconclusive: 0.0117 µM [inhibitor, full curve, poor fit]"
O=C(CCSc1ccccc1)Nc1ccccc1C(=O)N1CCCC1,inactive: -3.8%,
CN(C)c1ccc(C(CNC(=O)c2ccc(-c3ccccc3)cc2)N2CCOCC2)cc1 (configuration not stated),,"inconclusive: 4.65 µM [inhibitor, partial curve, poor fit]"
O=C(Cc1ccc(S(=O)(=O)N2CCCCC2)cc1)NCc1ccc(Cl)cc1,inactive: -47.3%,
CCCC(=O)NCCCCNC(=O)CCC,inactive: 0.564%,
Cc1nn(CC(=O)c2ccc(Br)s2)c(C)c1[N+](=O)[O-],,"inconclusive: 14.7 µM [inhibitor, single point]"
CCC(c1nnnn1CCOC)N1CCN(c2cccc(C(F)(F)F)c2)CC1 (configuration not stated),,active: 2.33 µM
O=C(COC(=O)c1cc[n+]([O-])cc1)Nc1c(Cl)cccc1C(F)(F)F,inactive: 24.8%,
Cc1cc(Nc2cccc(Cl)c2)c2ccccc2n1,inactive: 8.04%,
CCN1C(=O)CSc2ccc(C(=O)NC3CCCCC3)cc21,,"inconclusive: 18.5 µM [inhibitor, single point]"
COC(=O)c1cc(C(=O)NNC(=O)c2ccc3c(c2)OCO3)cc([N+](=O)[O-])c1,,"inconclusive: 0.131 µM [inhibitor, full curve, poor fit]"
CC(=O)c1ccccc1OCC(O)CN1CCN(c2ccccn2)CC1 (configuration not stated),inactive: 14.1%,
O=c1[nH][nH]c(-c2ccccc2)c1C=Nc1ccc(OC(F)(F)F)cc1,,"inconclusive: 0.0033 µM [inhibitor, full curve, poor fit]"
CCOC(=O)C1=C(C)N=c2s/c(=C/c3ccc(OCC(=O)O)cc3)c(=O)n2C1c1cc(OC)c(OC)c(OC)c1 (configuration not stated),,active: 0.738 µM
CCCCN(CCCC)CC(O)Cn1c2ccccc2c(=O)c2ccccc21 (configuration not stated),,"inconclusive: 2.33 µM [inhibitor, full curve]"
O=C(COc1ccc(C(=O)Nc2ccc(Cl)cc2)cc1)NCc1ccccc1,,"inconclusive: 18.5 µM [inhibitor, single point]"
O=C(c1cc(-c2ccc(F)cc2)on1)N1CCOCC1,inactive: -12%,
O=C(CN1C(=O)c2ccccc2C1=O)Nc1ccc(S(=O)(=O)N2CCOCC2)cc1,,"inconclusive: 18.5 µM [inhibitor, single point]"
COc1ccc(CCC(=O)Nc2cc(Cl)ccc2N2CCN(C)CC2)cc1,,active: 4.65 µM
CN(C)c1ccc(/C=N/NC(=O)c2cccc(C(=O)N/N=C/c3ccc(N(C)C)cc3)n2)cc1,,"inconclusive: 9.28 µM [inhibitor, partial curve]"
NNC(=O)Nc1cccc(C(F)(F)F)c1,,"inconclusive: 8.28 µM [inhibitor, partial curve, poor fit]"

SMILES,"activity change, negative = inhibition",Potency
Cc1ccccc1C1=NCC(=S)Nc2ccc(Cl)cc21,,"inconclusive: 10.4 µM [inhibitor, partial curve, poor fit]"
COc1ccccc1/C=N/NC(=O)CN(C1=NS(=O)(=O)c2ccccc21)c1ccccc1,,active: 0.147 µM
COc1cc(S(=O)(=O)N(Cc2cccnc2)Cc2cccc(OC)c2OC)ccc1-n1cnnn1,,"inconclusive: 9.28 µM [inhibitor, partial curve]"
CCOc1ccc(NC(=O)CCN2CCN(S(=O)(=O)c3ccc(OC)cc3)CC2)cc1,,"inconclusive: 14.7 µM [inhibitor, partial curve, poor fit]"
Cc1cc(C(=O)N2CCN(c3ccc([N+](=O)[O-])cc3)CC2)c(C)o1,inactive: 0%,
CCc1sc(-c2ccccc2)nc1C(=O)OC,inactive: 30.1%,
O=C(NC1CCS(=O)(=O)C1)c1cccc(S(=O)(=O)N2CCCCCC2)c1 (configuration not stated),,"inconclusive: 0.165 µM [inhibitor, partial curve, poor fit]"
COC(=O)c1c(CSc2cccc(C)c2)noc1C(=O)NCc1ccco1,inactive: 48.1%,
CCCCn1c(SCc2ccc(C(=O)OC)o2)nc2cc(S(N)(=O)=O)ccc21,inactive: -0.296%,
Cc1cc(NC(=O)C(C)SCC(=O)NCc2ccc(F)cc2)no1 (configuration not stated),inactive: -19.9%,
O=C(O)CCCN1C(=O)c2ccc(Oc3cccc([N+](=O)[O-])c3)cc2C1=O,inactive: -2.58%,
O=C(CSc1n[nH]c(=O)n1Cc1ccccc1)Nc1ccc(N2CCOCC2)cc1,inactive: -1.17%,
COc1cc(C(=O)O[C@H]2C/C(C)=C/CC[C@]3(C)O[C@@H]3C(O)C2C(C)C)cc(OC)c1OC (some centres not stated),,active: 4.15 µM
CCCOc1ccc(-c2nnc(-c3cccs3)o2)cc1,,"inconclusive: 11.7 µM [inhibitor, single point]"
Cc1cc(C)c(NC(=O)CSc2nccn2C)c(C)c1,,active: 0.0738 µM
CSc1cc(-c2ccccc2)n(Cc2c(Cl)cccc2Cl)c(=O)c1C#N,inactive: 3.7%,
O=C(NCCCN1CCOCC1)c1ccc(CNS(=O)(=O)c2ccc(Br)cc2)cc1,,"inconclusive: 13.1 µM [inhibitor, single point]"
CN(Cc1ccccc1)C(=O)CN1C(=O)NC(C)(c2ccc(C(C)(C)C)cc2)C1=O (configuration not stated),,"inconclusive: 10.4 µM [inhibitor, single point]"
CCOC(=O)/C(C#N)=C\C1=C(N2CCCC2)CC(C)(C)OC1,,"inconclusive: 5.86 µM [inhibitor, partial curve, poor fit]"
CC(C)Oc1ccc(C(=O)Nc2cc(S(=O)(=O)N3CCOCC3)ccc2N2CCOCC2)cc1,,"inconclusive: 5.22 µM [inhibitor, partial curve]"
Cc1nn(CC(=O)OCC(=O)NCCc2ccc(S(N)(=O)=O)cc2)c(C)c1[N+](=O)[O-],inactive: 49.8%,
O=C(NC(Cc1ccccc1)C(=O)O)/C(=C/c1ccccc1)NC(=O)c1cccc(Br)c1 (configuration not stated),inactive: 38.8%,
O=C(Nc1cccc(-c2nn[nH]n2)c1)c1csc2c1CCCC2,,"inconclusive: 2.94 µM [inhibitor, partial curve, poor fit]"
CC(C)(C)c1ccc(-c2nc(C#N)c(N3CCC(C(N)=O)CC3)o2)cc1,,"inconclusive: 13.1 µM [inhibitor, single point]"
